This assay deals with Cdc48 (WT), C-terminally tagged with FLAG and HIS-tag (S. cerevisiae) (UniProt P25694). The assay can be described thus: affinity purification with mass spectrometry; FLAG-tagged Cdc48 (WT or C115S) co-immunoprecipitated on magnetic beads from yeast lysate (Tris HCl pH 7.5 with protease inhibitors, Triton; diluted 1:1 with 50 mM Tris-HCl pH 7.5, 200 mM NaAc, 10 % glycerol), overnight at 4 °C; cells grown 24 h and 48 h; LC-MS/MS with label-free quantification; PTM search of the same data by PROMISE.

Chains of the proteins cited; added tags and fusions are not shown.
UniProt P25694: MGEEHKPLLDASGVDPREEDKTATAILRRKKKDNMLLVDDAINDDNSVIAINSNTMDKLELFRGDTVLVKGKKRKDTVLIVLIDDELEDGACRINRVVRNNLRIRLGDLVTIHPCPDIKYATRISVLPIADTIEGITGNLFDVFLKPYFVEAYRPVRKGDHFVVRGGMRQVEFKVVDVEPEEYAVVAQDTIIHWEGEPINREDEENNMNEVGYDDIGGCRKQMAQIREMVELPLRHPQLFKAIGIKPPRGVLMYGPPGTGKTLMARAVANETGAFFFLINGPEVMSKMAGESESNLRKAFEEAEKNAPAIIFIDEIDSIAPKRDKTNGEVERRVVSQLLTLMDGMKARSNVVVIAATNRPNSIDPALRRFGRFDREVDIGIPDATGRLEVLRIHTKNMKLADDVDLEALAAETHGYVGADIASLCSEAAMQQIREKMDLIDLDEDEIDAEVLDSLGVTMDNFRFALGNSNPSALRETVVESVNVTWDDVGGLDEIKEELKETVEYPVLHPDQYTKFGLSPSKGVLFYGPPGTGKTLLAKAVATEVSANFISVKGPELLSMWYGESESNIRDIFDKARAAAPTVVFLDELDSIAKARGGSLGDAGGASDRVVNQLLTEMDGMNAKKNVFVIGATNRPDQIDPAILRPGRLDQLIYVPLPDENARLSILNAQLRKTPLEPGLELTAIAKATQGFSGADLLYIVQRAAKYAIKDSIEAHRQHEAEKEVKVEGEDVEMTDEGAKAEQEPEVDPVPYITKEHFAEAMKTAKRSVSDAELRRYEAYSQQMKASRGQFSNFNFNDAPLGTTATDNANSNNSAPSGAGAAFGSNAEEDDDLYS
UniProt P0CX25: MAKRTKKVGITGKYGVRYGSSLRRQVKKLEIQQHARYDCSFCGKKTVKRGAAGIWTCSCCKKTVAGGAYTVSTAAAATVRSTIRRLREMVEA

Experimental findings from paper PMC12137173 are described below.

No constants are given. Whether binding was seen depends on the method and setting. In cells and extracts the contact can be indirect. These calls come from enrichment with a bait or labelling near it, and not all partners need be listed.

For the substance “Rpl43A (ubiquitinated) (from UniProt P0CX25 1-92)”, the binding entry is on record as “binds”.
